# Values from PubChem BioAssay AID1159578 (Peter MacCallum Cancer Centre, 2015).
# Screen: 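Knock-downs that alter how fast lymphatic endothelial cells migrate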 (primary screen)
# System: human lymphatic endothelial cells
# Reagent: siRNA pool against human genes, 40 nM
# Duration: 48 h after transfection
# Measurement: 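Cells stained with dye and imaged after a scratch; covered wound area and nuclei counted, duplicates averaged, migration set against mock wells and turned into a robust z-score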
# Reading the numbers: migration robust z-score: higher = faster migration into the scratch; migration relative to mock: higher = more scratch area covered than mock; nuclei per well: higher = more cells in the well
# Active means: 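Migration changed when robust z exceeds 2 or falls below -2 and mean nuclei number is at least 3300; otherwise not called changed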
# Calls: active = migration changed; inactive = no migration change, or too few cells
# In all, the deposit lists about 18,000 reagents; shown is a part drawn at random. In the full data, about 1,030 (5.7%) are marked active. 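Inactive calls also include pools with fewer than 3300 nuclei, whose migration was not assessed.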 Raw values are not corrected between plates. Unmarked entries are inactive. Reagent sequences are not shown.
target,migration robust z-score,migration class with cell-count check,migration relative to mock,"nuclei per well, duplicate mean"
USP4,-0.24,migration z between -2 and 2; enough cells,0.76,5360
PROP1,-1.12,migration z between -2 and 2; enough cells,0.59,5924
ERC2,0.78,migration z between -2 and 2; enough cells,1.09,6846
BOD1,-1.24,migration z between -2 and 2; enough cells,0.56,5438
LOC652859 (retired record),0.8,migration z between -2 and 2; enough cells,0.96,7286
OOEP,-1.7,migration z between -2 and 2; enough cells,0.44,4570
LIPN,-2.1 (active),migration z below -2; enough cells,0.4,4150
TANC1,-1.51,migration z between -2 and 2; enough cells,0.5,7207
MIR9-1HG,-0.03,migration z between -2 and 2; enough cells,0.88,4654
XK,0.75,migration z between -2 and 2; enough cells,0.95,5585
ZEB2,-0.8,migration z between -2 and 2; enough cells,0.65,3342
ZNF692,0.64,migration z between -2 and 2; enough cells,1.05,6649
INSIG2,0.37,migration z between -2 and 2; enough cells,0.98,4820
SPATA17,-2.77,under 3300 nuclei; migration not judged,0.15,2769
GSK3A,-0.7,migration z between -2 and 2; enough cells,0.67,5564
PTPRC,-0.08,migration z between -2 and 2; enough cells,0.79,5554
TBK1,-0.03,migration z between -2 and 2; enough cells,0.8,4334
EFCAB5,-0.72,migration z between -2 and 2; enough cells,0.7,6895
VPS28,0.02,migration z between -2 and 2; enough cells,0.89,5022
UBAC2,1.88,migration z between -2 and 2; enough cells,1.38,5655
C16orf86,-1.15,migration z between -2 and 2; enough cells,0.58,6819
WEE1,-4.59,under 3300 nuclei; migration not judged,-0.08,1352
PRORSD1P,-0.73,migration z between -2 and 2; enough cells,0.7,5800
AICDA,-0.88,migration z between -2 and 2; enough cells,0.64,5549
ABLIM2,-0.3,migration z between -2 and 2; enough cells,0.81,4742
OR4F3,0.12,migration z between -2 and 2; enough cells,0.92,6002

6 entries from above in another layout.
| target | migration robust z-score | migration class with cell-count check | migration relative to mock | nuclei per well, duplicate mean |
| --- | --- | --- | --- | --- |
| UBAC2 | 1.88 | migration z between -2 and 2; enough cells | 1.38 | 5655 |
| C16orf86 | -1.15 | migration z between -2 and 2; enough cells | 0.58 | 6819 |
| WEE1 | -4.59 | under 3300 nuclei; migration not judged | -0.08 | 1352 |
| PRORSD1P | -0.73 | migration z between -2 and 2; enough cells | 0.7 | 5800 |
| AICDA | -0.88 | migration z between -2 and 2; enough cells | 0.64 | 5549 |
| ABLIM2 | -0.3 | migration z between -2 and 2; enough cells | 0.81 | 4742 |

The results go on.
target,migration robust z-score,migration class with cell-count check,migration relative to mock,"nuclei per well, duplicate mean"
TREH,-0.18,migration z between -2 and 2; enough cells,0.77,6529
H3-5,-0.48,migration z between -2 and 2; enough cells,0.76,4884
PI4KAP2,0.64,migration z between -2 and 2; enough cells,1.05,5251
IL23A,0.36,migration z between -2 and 2; enough cells,0.98,5280
NBPF3,-0.84,migration z between -2 and 2; enough cells,0.67,5622
UBP1,-0.82,migration z between -2 and 2; enough cells,0.67,5154
PNPLA1,-1.27,migration z between -2 and 2; enough cells,0.56,4802
KANSL2,-1.65,migration z between -2 and 2; enough cells,0.45,4534
DYDC2,-1.37,migration z between -2 and 2; enough cells,0.53,6047
COMTD1,1.48,migration z between -2 and 2; enough cells,1.09,5564
UGT2B17,0.32,migration z between -2 and 2; enough cells,0.86,5071
CD59,0.09,migration z between -2 and 2; enough cells,0.9,5340
FBXO44,-2.39 (active),migration z below -2; enough cells,0.35,5724
INPP4B,-1.04,migration z between -2 and 2; enough cells,0.6,6302
FEZF1,0.22,migration z between -2 and 2; enough cells,0.94,6728
CCL3L3,0.26,migration z between -2 and 2; enough cells,0.96,6002
HPSE,-0.2,migration z between -2 and 2; enough cells,0.76,4894
FSD2,-0.56,migration z between -2 and 2; enough cells,0.74,4352
CARD19,-0.32,migration z between -2 and 2; enough cells,0.8,5630
ASF1A,-0.42,migration z between -2 and 2; enough cells,0.72,5738
MCUB,0.46,migration z between -2 and 2; enough cells,1,6411
SLC28A3,0.38,migration z between -2 and 2; enough cells,0.88,6884
SLC25A20,-1.22,migration z between -2 and 2; enough cells,0.57,6080
ZMAT1,-1.34,migration z between -2 and 2; enough cells,0.54,5579
C8orf82,1.19,migration z between -2 and 2; enough cells,1.19,6109
EIF2B5,0.5,migration z between -2 and 2; enough cells,0.9,6518
CORO2B,-4.13 (active),migration z below -2; enough cells,-0.19,3732
COLQ,0.74,migration z between -2 and 2; enough cells,1.08,5415
POLE4,0.03,migration z between -2 and 2; enough cells,0.9,7030
METTL13,0.72,migration z between -2 and 2; enough cells,0.94,4781
ALOX12,-0.13,migration z between -2 and 2; enough cells,0.78,6068
